No constants are given. Whether binding was seen depends on the method and setting.
Tests used:
chymotrypsin = test: ELISA, antigen coated at 10 ug/ml, antibody supernatant, compared with anti-digoxin control
trypsin = test: as above

- binding (chymotrypsin): no binding
- binding (trypsin): no binding
B1: monoclonal antibody plasmin inhibitor (Pi) (antibody, mouse IgG1, kappa, V domains shown)
VH: EVKLLESGGGLVQPGGSLKLSCAASGFDFSRYWMSWVRQAPGKGLEWIGEINPDSSTINYTPSLKDKFIISRDNAKNSLYLQMSKVRSEDTALYYCASYCGYSYDALDCWGQGTSVTVSS
VL: DIQMTQSPSSLSASLGGKVSITCKASQDINKYISWYQHKPGKGPRLLIHYTSTLQPGIPSRFSGSGSGRDYSFSISNLEPEDIATYYCLQYDNLYTFGGGTKLEIKR
notes: Mouse hybridoma IgG purified from supernatant; also called Pi IgG; Pi MAb38
